PubChem BioAssay AID743121 – NCATS – 2013
Screen: 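Knock-downs that sensitise breast cancer cells to camptothecin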 (primary screen). System: MDA-MB-231 cells, a human breast cancer line. Knock-down reagent: single siRNA against human genes, 20 nM siRNA (0.8 pmol per well). Timing: 120 h (drug added 48 h after transfection, read 72 h later). Conditions: camptothecin 20 nM (about EC30) for 72 h; vehicle 0.1% DMSO in parallel plates. Detection: 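Cell viability by ATP luminescence (CellTiter-Glo) as % of non-targeting siRNA wells, and the log2 ratio of viability without drug over viability with camptothecin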. Reading the numbers: log2 vehicle/camptothecin viability: higher = stronger sensitisation to camptothecin; viability with camptothecin and viability without drug: higher = more viable cells. Call rule: 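Each gene scored by redundant siRNA activity (RSA) over its individual siRNA ratios; a gene is called active at p < 0.001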.
In all, the deposit lists about 26,000 reagents; this is a random part of them. In the full data, 167 (0.63%) got an active call. 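Calls are per gene from RSA p-values that are not deposited; an individual active-marked siRNA can sensitise only weakly.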 Reagents against one gene are numbered here. No sequences are given here.

| gene knocked down | reagent no. | log2 vehicle/camptothecin viability | viability with camptothecin (% of control) | viability without drug (% of control) | Call |
| --- | --- | --- | --- | --- | --- |
| CYP3A7 (cytochrome P450 family 3 subfamily A member 7) | 1 | -0.245 | 122 | 103 | inactive |
| CYP3A7 (cytochrome P450 family 3 subfamily A member 7) | 2 | 0.0583 | 87 | 90.6 | inactive |
| CYP3A7 (cytochrome P450 family 3 subfamily A member 7) | 3 | -0.118 | 82.8 | 76.2 | inactive |
| CYP3A7 (cytochrome P450 family 3 subfamily A member 7) | 4 | -0.0828 | 80.1 | 75.7 | inactive |
| KIF18B (kinesin family member 18B) | 1 | -0.143 | 83.9 | 76 | inactive |
| KIF18B (kinesin family member 18B) | 2 | -0.64 | 31.7 | 20.3 | inactive |
| KIF18B (kinesin family member 18B) | 3 | -0.0858 | 80.5 | 75.8 | inactive |
| SP1 (Sp1 transcription factor) | 1 | -0.261 | 99.9 | 83.4 | inactive |
| SP1 (Sp1 transcription factor) | 2 | -0.359 | 102 | 79.7 | inactive |
| SP1 (Sp1 transcription factor) | 3 | -0.358 | 62.9 | 49 | inactive |
| SP1 (Sp1 transcription factor) | 4 | -0.0223 | 99.3 | 97.8 | inactive |
| DCST1 (DC-STAMP domain containing 1) | 1 | -0.0403 | 76.4 | 74.3 | inactive |
| DCST1 (DC-STAMP domain containing 1) | 2 | -0.0871 | 86.4 | 81.4 | inactive |
| DCST1 (DC-STAMP domain containing 1) | 3 | -0.395 | 20.1 | 15.3 | inactive |
| BMF (Bcl2 modifying factor) | 1 | -0.11 | 91.3 | 84.6 | inactive |
| BMF (Bcl2 modifying factor) | 2 | -0.222 | 95.2 | 81.6 | inactive |
| BMF (Bcl2 modifying factor) | 3 | -0.162 | 86.3 | 77.1 | inactive |
| BMF (Bcl2 modifying factor) | 4 | -0.0541 | 89.7 | 86.4 | inactive |
| FZD3 (frizzled class receptor 3) | 1 | -0.103 | 81.4 | 75.8 | inactive |
| FZD3 (frizzled class receptor 3) | 2 | 0.384 | 59.4 | 77.5 | inactive |
| FZD3 (frizzled class receptor 3) | 3 | -0.118 | 90.1 | 83.1 | inactive |
| FZD3 (frizzled class receptor 3) | 4 | -0.724 | 10 | 6.06 | inactive |
| OR52H1 (olfactory receptor family 52 subfamily H member 1) | 1 | -0.0716 | 98.1 | 93.4 | inactive |
| OR52H1 (olfactory receptor family 52 subfamily H member 1) | 2 | -0.231 | 104 | 88.7 | inactive |
| OR52H1 (olfactory receptor family 52 subfamily H member 1) | 3 | -0.0057 | 23.7 | 23.6 | inactive |
| OR52H1 (olfactory receptor family 52 subfamily H member 1) | 4 | -0.149 | 67.8 | 61.2 | inactive |
| GABRB1 (gamma-aminobutyric acid type A receptor subunit beta1) | 1 | -0.358 | 68.3 | 53.3 | inactive |
| GABRB1 (gamma-aminobutyric acid type A receptor subunit beta1) | 2 | -0.379 | 96.4 | 74.2 | inactive |
| GABRB1 (gamma-aminobutyric acid type A receptor subunit beta1) | 3 | -0.0777 | 114 | 108 | inactive |
| METTL13 (methyltransferase 13, eEF1A N-terminus and K55) | 1 | -0.175 | 68.8 | 60.9 | inactive |
| METTL13 (methyltransferase 13, eEF1A N-terminus and K55) | 2 | -0.89 | 31.7 | 17.1 | inactive |
| METTL13 (methyltransferase 13, eEF1A N-terminus and K55) | 3 | -0.0694 | 100 | 95.3 | inactive |
| METTL13 (methyltransferase 13, eEF1A N-terminus and K55) | 4 | 0.124 | 26.8 | 29.2 | inactive |
| MRGPRX4 (MAS related GPR family member X4) | 1 | 0.772 | 24.2 | 41.4 | inactive |
| MRGPRX4 (MAS related GPR family member X4) | 2 | -0.116 | 70.5 | 65.1 | inactive |
| MRGPRX4 (MAS related GPR family member X4) | 3 | -0.00768 | 88.3 | 87.9 | inactive |
| MRGPRX4 (MAS related GPR family member X4) | 4 | 0.525 | 50 | 72 | inactive |
| PLA2G12A (phospholipase A2 group XIIA) | 1 | 0.243 | 43.5 | 51.5 | inactive |
| PLA2G12A (phospholipase A2 group XIIA) | 2 | -0.18 | 78.6 | 69.3 | inactive |
| PLA2G12A (phospholipase A2 group XIIA) | 3 | -0.096 | 92.6 | 86.7 | inactive |
| F12 (coagulation factor XII) | 1 | -0.317 | 58.2 | 46.7 | inactive |
| F12 (coagulation factor XII) | 2 | -0.43 | 70.6 | 52.4 | inactive |
| F12 (coagulation factor XII) | 3 | -0.0635 | 95.8 | 91.6 | inactive |
| F12 (coagulation factor XII) | 4 | -0.0658 | 65.4 | 62.5 | inactive |
| INPP5J (inositol polyphosphate-5-phosphatase J) | 1 | -0.259 | 66.9 | 55.9 | inactive |
| INPP5J (inositol polyphosphate-5-phosphatase J) | 2 | 0.146 | 51.2 | 56.6 | inactive |
| INPP5J (inositol polyphosphate-5-phosphatase J) | 3 | 0.104 | 101 | 109 | inactive |
| INPP5J (inositol polyphosphate-5-phosphatase J) | 4 | -0.273 | 89.4 | 74 | inactive |

5 of these entries, set out differently.
gene knocked down	reagent no.	log2 vehicle/camptothecin viability	viability with camptothecin (% of control)	viability without drug (% of control)	Call
GABRB1 (gamma-aminobutyric acid type A receptor subunit beta1)	2	-0.379	96.4	74.2	inactive
GABRB1 (gamma-aminobutyric acid type A receptor subunit beta1)	3	-0.0777	114	108	inactive
METTL13 (methyltransferase 13, eEF1A N-terminus and K55)	1	-0.175	68.8	60.9	inactive
METTL13 (methyltransferase 13, eEF1A N-terminus and K55)	2	-0.89	31.7	17.1	inactive
METTL13 (methyltransferase 13, eEF1A N-terminus and K55)	3	-0.0694	100	95.3	inactive
